Laboratory results as given in publication PMC5672931 (British Journal of Cancer, 2017).

Experiment: pharmacokinetics, plasma concentrations by LC-MS/MS
Conditions: human, intravenous, 1.85 mg m^−2

For `CCc1cnn2c(NCc3ccc[n+]([O-])c3)cc(N3CCCC[C@H]3CCO)nc12` [dinaciclib, Dinaciclib], the half-life was 1.42 h.
